Data as given in PubChem BioAssay AID1259405 (NCATS, 2018).
Shown is an unselected part of about 50,000 reagents tested. In the full data, about 4,000 (8%) got an active call. 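Mouse siRNA library applied to hamster cells; one well for each siRNA.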 Entries without a mark were called inactive. The numbers tell different reagents against one gene apart. No sequences are given here.

Aim: 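Silenced genes that increase secreted GFP made by CHO cells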 (primary screen)
System: Chinese hamster CHO-K1 ovary cells with stable secreted eGFP expression
Knock-down reagent: single siRNA against mouse genes, 0.8 pmol siRNA per well (2 µl of 400 nM stock)
Duration: 3 days
Measurement: 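Percent of the per-plate non-targeting control median for intracellular GFP per well by laser scanning cytometry and for cell viability by ATP luminescence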
Scale: GFP, % of control: higher = more GFP per well, higher productivity; viability (ATP), % of control: higher = more viable cells (more ATP)
Call rule: 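Called active when intracellular GFP, relative to negative control, is at or above 120%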

Lypd8 (LY6/PLAUR domain containing 8) #1 scored GFP, % of control 29.4; viability (ATP), % of control 67.2.
Silencing of Lypd8 (LY6/PLAUR domain containing 8) #2 gave: GFP, % of control 13.9; viability (ATP), % of control 20.7.
Silencing of Lypd8 (LY6/PLAUR domain containing 8) #3 came out at: GFP, % of control 64; viability (ATP), % of control 77.
Depletion of Slc25a39 #1 came out at: GFP, % of control 42.2; viability (ATP), % of control 53.9.
Depletion of Slc25a39 #2 resulted in: GFP, % of control 82.1; viability (ATP), % of control 109.
Knock-down of Slc25a39 #3 came out at: GFP, % of control 110; viability (ATP), % of control 88.7.
Knock-down of Cstdc1 (cystatin domain containing 1) #1 came out at: GFP, % of control 63.7; viability (ATP), % of control 50.2.
Cstdc1 (cystatin domain containing 1) #2 showed GFP, % of control 98; viability (ATP), % of control 78.2.
Cstdc1 (cystatin domain containing 1) #3 showed GFP, % of control 82.5; viability (ATP), % of control 100.
With knock-down of Fbn1 (fibrillin 1) #1, the record shows GFP, % of control 175 (active); viability (ATP), % of control 99.6.
For Fbn1 (fibrillin 1) #2, the entry reads GFP, % of control 71.2; viability (ATP), % of control 73.2.
After knock-down of Slc10a2 #1, the screen gave GFP, % of control 70.3; viability (ATP), % of control 53.8.
After knock-down of Slc10a2 #2, the screen gave GFP, % of control 55; viability (ATP), % of control 59.6.
After knock-down of Slc10a2 #3 the results were GFP, % of control 84.8; viability (ATP), % of control 82.7.

Records above called active (1):
Fbn1 (fibrillin 1) #1 → GFP, % of control = 175 (active); viability (ATP), % of control = 99.6

The listing continues.
Depletion of Cct4 (chaperonin containing TCP1 subunit 4) #1 resulted in: GFP, % of control 137 (active); viability (ATP), % of control 80.4.
Cct4 (chaperonin containing TCP1 subunit 4) #2 gave GFP, % of control 88; viability (ATP), % of control 100.
Cct4 (chaperonin containing TCP1 subunit 4) #3 gave GFP, % of control 72.7; viability (ATP), % of control 109.
For Cdc34 (cell division cycle 34) #1, the entry reads GFP, % of control 56.6; viability (ATP), % of control 76.4.
With knock-down of Cdc34 (cell division cycle 34) #2, the screen gave GFP, % of control 83.4; viability (ATP), % of control 69.4.
For Cdc34 (cell division cycle 34) #3, the entry reads GFP, % of control 61.9; viability (ATP), % of control 117.
With knock-down of Nt5dc1 (5'-nucleotidase domain containing 1) #1, the screen gave GFP, % of control 89.4; viability (ATP), % of control 85.
After knock-down of Nt5dc1 (5'-nucleotidase domain containing 1) #2, the screen gave GFP, % of control 56.1; viability (ATP), % of control 43.9.
Against Nt5dc1 (5'-nucleotidase domain containing 1) #3 the deposit lists GFP, % of control 84.7; viability (ATP), % of control 71.8.
Knock-down of Plcb3 (phospholipase C, beta 3) #1 gave: GFP, % of control 137 (active); viability (ATP), % of control 99.1.
For Plcb3 (phospholipase C, beta 3) #2 the deposit lists GFP, % of control 133 (active); viability (ATP), % of control 118.
With knock-down of Plcb3 (phospholipase C, beta 3) #3 the results were GFP, % of control 116; viability (ATP), % of control 89.9.
Against Pla2g4e (phospholipase A2, group IVE) #1 the deposit lists GFP, % of control 91.7; viability (ATP), % of control 27.3.
Pla2g4e (phospholipase A2, group IVE) #2 showed GFP, % of control 154 (active); viability (ATP), % of control 73.1.
Knock-down of Pla2g4e (phospholipase A2, group IVE) #3 resulted in: GFP, % of control 125 (active); viability (ATP), % of control 76.
Or8b53 (olfactory receptor family 8 subfamily B member 53) #1 scored GFP, % of control 79; viability (ATP), % of control 62.3.
For Or8b53 (olfactory receptor family 8 subfamily B member 53) #2 the deposit lists GFP, % of control 190 (active); viability (ATP), % of control 62.
Silencing of Or8b53 (olfactory receptor family 8 subfamily B member 53) #3 resulted in: GFP, % of control 67.6; viability (ATP), % of control 91.
With knock-down of Nrxn1 (neurexin I) #1, the record shows GFP, % of control 94.6; viability (ATP), % of control 87.8.
Nrxn1 (neurexin I) #2 gave GFP, % of control 57.2; viability (ATP), % of control 79.8.
Depletion of Nrxn1 (neurexin I) #3 came out at: GFP, % of control 110; viability (ATP), % of control 111.
For Vmn1r185 (vomeronasal 1 receptor 185) #1, the entry reads GFP, % of control 94.1; viability (ATP), % of control 65.7.
With knock-down of Vmn1r185 (vomeronasal 1 receptor 185) #2, the screen gave GFP, % of control 93.6; viability (ATP), % of control 98.
With knock-down of Vmn1r185 (vomeronasal 1 receptor 185) #3 the results were GFP, % of control 54.7; viability (ATP), % of control 85.6.
For Eci2 (enoyl-Coenzyme A delta isomerase 2) #1, the values are GFP, % of control 70.4; viability (ATP), % of control 64.5.
Eci2 (enoyl-Coenzyme A delta isomerase 2) #2 showed GFP, % of control 115; viability (ATP), % of control 64.2.
For Eci2 (enoyl-Coenzyme A delta isomerase 2) #3, the entry reads GFP, % of control 96.7; viability (ATP), % of control 73.9.
